These are yes or no findings as the source states them, for the method shown. Binding seen in cells or lysates may run through a third protein. A result given as binding can be weak or reduced; the word gives no strength.
Biological target: FLAG-tagged TgMLC1 C8S (Toxoplasma gondii)
Assay: co-IP; anti-FLAG M2 affinity resin, Triton X-100 extract of parasites in FLAG lysis buffer (10 mM imidazole pH 7.4, 300 mM NaCl, 1 mM EGTA, 5 mM MgCl2, 1% TX-100, 2 mM DTT, 2 mM ATP), overnight at 4°C, eluted with FLAG peptide, quantitative Western blotting

B1: TgGAP45 (Toxoplasma gondii glideosome-associated protein 45) (protein, UniProt Q7Z289 1-245)
chain: MGNACKKNTAKTPTRKEAEDLAEKERQEREAKEKAEAEEKARAEAEKNAADKAEAERRAAEAREREESARKEAEAEAARKAEAEAAEAERLRKEAEKKKAEEAKRKAEEEQRAAAEEAEQRAREEAERRKAEAAAAAERERQMQEALKQEEMSPREKYDKLASPEDSASETTMATQPQKVAEHSSAAVTDRSVVGYTVTPCDMAAIDETAKYLSKRCGCDLGDQHDENECPICRHIDLSDAPLLN
In the case of B1, the binding is reported as “binds”.
